No constants are given. Whether binding was seen depends on the method and setting. Binding seen in cells or lysates may run through a third protein. Some binding calls cover weakened binding; strength is not graded here.
Legend:
[1] = target: recombinant mouse FGF21 (mouse) (UniProt Q9JJN1); assay: co-IP; cardiomyocytes freshly isolated from healthy wild-type mice incubated in vitro with recombinant mouse FGF21 (50 ng/ml), 5 to 120 min; lysed in RIPA buffer; co-immunoprecipitation and immunoblot; only the target purified
[2] = target: FGF21 (in cardiomyocytes isolated from the ischemic myocardium of wild-type mice) (mouse (endogenous in wild-type mice)) (UniProt Q9JJN1); assay: co-IP; cardiomyocytes isolated from the ischemic myocardium of wild-type mice at 1, 3 and 5 days after ischemia/reperfusion injury; myocardial injection of β-Klotho siRNA or control siRNA 3 days before injury; immunoprecipitation and immunoblot

By UniProt entry, the sequences of proteins in these tests, tags left out. Residues count along the entry.
UniProt Q9JJN1, residues 29-210: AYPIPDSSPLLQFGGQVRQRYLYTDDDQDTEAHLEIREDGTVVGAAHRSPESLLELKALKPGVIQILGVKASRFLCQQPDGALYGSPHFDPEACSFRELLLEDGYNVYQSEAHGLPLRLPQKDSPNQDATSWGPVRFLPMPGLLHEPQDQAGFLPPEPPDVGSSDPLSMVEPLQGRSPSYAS
UniProt Q61851, residues 21-801: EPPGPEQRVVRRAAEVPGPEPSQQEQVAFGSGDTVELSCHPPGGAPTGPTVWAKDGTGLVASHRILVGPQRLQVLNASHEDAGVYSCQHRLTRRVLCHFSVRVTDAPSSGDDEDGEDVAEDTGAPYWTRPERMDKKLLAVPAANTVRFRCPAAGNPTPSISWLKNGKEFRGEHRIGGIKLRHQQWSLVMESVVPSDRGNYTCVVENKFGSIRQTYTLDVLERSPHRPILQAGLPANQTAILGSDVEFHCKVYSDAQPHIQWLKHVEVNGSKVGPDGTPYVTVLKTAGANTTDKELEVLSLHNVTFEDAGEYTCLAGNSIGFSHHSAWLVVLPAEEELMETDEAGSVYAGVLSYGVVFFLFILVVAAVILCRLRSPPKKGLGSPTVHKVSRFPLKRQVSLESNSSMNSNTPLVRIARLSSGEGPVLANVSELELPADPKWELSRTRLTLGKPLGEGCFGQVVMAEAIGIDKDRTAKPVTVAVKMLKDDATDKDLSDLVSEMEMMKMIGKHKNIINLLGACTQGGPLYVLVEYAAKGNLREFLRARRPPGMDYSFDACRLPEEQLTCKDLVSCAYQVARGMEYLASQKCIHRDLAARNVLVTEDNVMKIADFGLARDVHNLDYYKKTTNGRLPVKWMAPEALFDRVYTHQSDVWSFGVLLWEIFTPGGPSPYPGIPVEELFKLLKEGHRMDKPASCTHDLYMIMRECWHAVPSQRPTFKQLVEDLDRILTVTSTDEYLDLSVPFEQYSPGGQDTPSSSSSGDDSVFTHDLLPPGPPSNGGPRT
UniProt P16092, residues 22-822: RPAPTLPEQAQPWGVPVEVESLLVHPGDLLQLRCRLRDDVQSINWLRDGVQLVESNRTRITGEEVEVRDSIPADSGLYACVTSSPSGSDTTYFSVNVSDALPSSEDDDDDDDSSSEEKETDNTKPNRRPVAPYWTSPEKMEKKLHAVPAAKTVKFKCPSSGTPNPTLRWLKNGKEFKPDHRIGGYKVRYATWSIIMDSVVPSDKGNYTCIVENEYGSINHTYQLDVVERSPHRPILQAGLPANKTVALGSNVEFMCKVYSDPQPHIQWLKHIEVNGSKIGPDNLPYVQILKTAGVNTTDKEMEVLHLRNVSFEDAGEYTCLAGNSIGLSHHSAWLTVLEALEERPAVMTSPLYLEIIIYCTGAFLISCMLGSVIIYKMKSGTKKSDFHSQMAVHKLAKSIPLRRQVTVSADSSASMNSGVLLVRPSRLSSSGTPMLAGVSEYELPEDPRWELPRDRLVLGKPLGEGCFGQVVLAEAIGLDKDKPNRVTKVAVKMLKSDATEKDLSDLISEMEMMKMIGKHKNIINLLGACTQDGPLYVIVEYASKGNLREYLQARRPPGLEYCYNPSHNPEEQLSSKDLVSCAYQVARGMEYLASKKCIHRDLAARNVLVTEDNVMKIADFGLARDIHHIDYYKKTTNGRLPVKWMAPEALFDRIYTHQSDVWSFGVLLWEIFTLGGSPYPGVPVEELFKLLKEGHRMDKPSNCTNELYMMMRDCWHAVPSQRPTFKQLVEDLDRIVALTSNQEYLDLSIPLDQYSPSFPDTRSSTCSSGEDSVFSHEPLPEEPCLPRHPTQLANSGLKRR

Substance | binding [1] | binding [2]
FGFR3 (from UniProt Q61851 21-801) (receptor) | no binding (tested: 50 ng/ml) | 
FGFR1 (from UniProt P16092 22-822) (receptor) | binds | binds
